These are yes or no findings as the source states them, for the method shown. Binding seen in cells or lysates may run through a third protein. These calls come from enrichment with a bait or labelling near it, and not all partners need be listed.
Biological target: GST-Vax1 (mouse) (UniProt Q2NKI2)
Experiment: affinity purification with mass spectrometry; GST-Vax1 (control GST) from cytoplasmic fractions of transfected HEK293T cells on glutathione Sepharose 4B, 4°C 1 hr, 10 mM Tris-HCl pH 7.4, 200 mM NaCl, 1% NP-40; SDS-PAGE, silver stain, bands identified by MALDI-TOF

Sequences of proteins named here, by UniProt entry; tags and fusion partners are left off.
UniProt Q2NKI2: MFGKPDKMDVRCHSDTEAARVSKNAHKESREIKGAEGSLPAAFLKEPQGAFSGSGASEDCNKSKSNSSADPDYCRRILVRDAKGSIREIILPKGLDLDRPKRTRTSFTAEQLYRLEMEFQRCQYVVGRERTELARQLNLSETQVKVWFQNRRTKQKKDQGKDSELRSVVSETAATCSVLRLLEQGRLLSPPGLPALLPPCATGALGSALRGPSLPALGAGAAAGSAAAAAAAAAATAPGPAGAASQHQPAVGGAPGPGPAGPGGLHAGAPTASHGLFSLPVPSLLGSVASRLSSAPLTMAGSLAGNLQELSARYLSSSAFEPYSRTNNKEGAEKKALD
UniProt Q99613: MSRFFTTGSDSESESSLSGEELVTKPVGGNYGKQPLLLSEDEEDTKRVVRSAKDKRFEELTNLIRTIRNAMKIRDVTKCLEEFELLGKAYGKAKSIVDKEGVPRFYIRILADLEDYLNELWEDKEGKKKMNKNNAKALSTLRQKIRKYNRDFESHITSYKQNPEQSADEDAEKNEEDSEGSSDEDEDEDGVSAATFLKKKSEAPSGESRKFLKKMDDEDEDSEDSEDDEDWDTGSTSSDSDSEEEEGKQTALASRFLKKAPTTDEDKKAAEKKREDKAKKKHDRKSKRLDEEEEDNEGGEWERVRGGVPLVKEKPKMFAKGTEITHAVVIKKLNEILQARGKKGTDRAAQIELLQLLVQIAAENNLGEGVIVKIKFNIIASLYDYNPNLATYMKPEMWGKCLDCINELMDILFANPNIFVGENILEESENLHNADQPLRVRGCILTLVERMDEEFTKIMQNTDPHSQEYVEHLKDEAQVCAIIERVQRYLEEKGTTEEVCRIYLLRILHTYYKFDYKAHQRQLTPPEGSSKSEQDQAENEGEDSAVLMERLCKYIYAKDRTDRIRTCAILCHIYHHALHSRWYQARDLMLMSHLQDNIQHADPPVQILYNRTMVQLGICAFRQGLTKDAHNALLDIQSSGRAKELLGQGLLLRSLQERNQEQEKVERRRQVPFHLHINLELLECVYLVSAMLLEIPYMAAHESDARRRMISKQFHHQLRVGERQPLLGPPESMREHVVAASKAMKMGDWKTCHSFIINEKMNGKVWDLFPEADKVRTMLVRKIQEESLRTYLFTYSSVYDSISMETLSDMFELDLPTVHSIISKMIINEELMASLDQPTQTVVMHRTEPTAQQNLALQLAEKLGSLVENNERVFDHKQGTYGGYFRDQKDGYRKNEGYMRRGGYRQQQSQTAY
UniProt P55884: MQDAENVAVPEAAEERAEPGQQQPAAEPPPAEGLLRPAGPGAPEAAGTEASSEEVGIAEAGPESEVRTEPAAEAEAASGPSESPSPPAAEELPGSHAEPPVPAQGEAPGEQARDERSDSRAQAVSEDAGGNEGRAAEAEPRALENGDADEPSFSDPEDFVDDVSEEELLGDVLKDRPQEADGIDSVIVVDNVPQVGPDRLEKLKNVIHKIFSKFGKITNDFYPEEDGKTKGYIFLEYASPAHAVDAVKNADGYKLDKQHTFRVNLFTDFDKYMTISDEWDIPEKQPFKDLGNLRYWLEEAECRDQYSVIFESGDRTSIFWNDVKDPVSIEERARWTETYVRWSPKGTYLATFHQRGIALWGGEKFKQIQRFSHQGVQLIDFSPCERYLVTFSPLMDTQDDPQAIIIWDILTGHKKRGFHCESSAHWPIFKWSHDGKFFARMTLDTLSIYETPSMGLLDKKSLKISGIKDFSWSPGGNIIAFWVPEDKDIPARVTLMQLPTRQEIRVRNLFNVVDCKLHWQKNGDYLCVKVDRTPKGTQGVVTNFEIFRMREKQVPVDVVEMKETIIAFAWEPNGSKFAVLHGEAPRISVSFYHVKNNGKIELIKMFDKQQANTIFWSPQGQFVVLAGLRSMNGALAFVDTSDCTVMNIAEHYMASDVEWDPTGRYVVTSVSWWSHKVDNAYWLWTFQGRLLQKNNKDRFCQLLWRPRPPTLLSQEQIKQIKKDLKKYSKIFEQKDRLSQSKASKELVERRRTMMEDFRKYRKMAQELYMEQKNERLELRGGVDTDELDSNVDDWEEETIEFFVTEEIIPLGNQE
UniProt P0DMV8: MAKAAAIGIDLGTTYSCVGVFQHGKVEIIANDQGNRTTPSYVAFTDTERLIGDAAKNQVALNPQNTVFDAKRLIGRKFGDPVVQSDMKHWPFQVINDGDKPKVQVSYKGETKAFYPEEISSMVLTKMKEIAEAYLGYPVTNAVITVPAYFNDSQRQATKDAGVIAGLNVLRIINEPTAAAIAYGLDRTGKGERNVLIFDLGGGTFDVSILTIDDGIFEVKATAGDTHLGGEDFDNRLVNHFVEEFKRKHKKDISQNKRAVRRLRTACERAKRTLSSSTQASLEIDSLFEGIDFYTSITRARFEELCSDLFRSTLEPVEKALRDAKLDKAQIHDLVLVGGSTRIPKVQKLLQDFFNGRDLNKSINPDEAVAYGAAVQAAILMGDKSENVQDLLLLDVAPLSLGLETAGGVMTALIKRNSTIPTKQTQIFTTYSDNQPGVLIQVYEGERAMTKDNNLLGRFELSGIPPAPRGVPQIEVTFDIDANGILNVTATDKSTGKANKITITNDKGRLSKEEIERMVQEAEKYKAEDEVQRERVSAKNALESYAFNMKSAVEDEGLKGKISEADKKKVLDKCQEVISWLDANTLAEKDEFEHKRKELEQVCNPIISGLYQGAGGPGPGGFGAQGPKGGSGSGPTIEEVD

Row | Substance | binding
1 | Eukaryotic translation initiation factor (eIF) 3C (from UniProt Q99613 1-913) | binds
2 | Eukaryotic translation initiation factor (eIF) 3B (from UniProt P55884 1-814) | binds
3 | HSPA1A (heat shock 70-kDa protein 1A) (from UniProt P0DMV8 1-641) | binds

— PMC4178304
